Experimental data reported in article PMC6818353.
No constants are given. Whether binding was seen depends on the method and setting. Binding calls can cover weak binding; strength is not graded here. For some of these results: Binding seen in cells or lysates may run through a third protein. For some of these results: Sequences can lack the tags named with a protein.

target: V5-His6-tagged Zika virus NS5 protein (Zika virus (PRVABC59 strain)); assay: co-IP

Binder	binding
Myc- or Flag-tagged CCDC124 expressed in HEK293T cells (protein, UniProt Q96CT7 1-223) MPKKFQGENTKSAAARARRAEAKAAADAKKQKELEDAYWKDDDKHVMRKEQRKEEKEKRRLDQLERKKETQRLLEEEDSKLKGGKAPRVATSSKVTRAQIEDTLRRDHQLREAPDTAEKAKSHLEVPLEENVNRRVLEEGSVEARTIEDAIAVLSVAEEAADRHPERRMRAAFTAFEEAQLPRLKQENPNMRLSQLKQLLKKEWLRSPDNPMNQRAVPFNAPK	binds
Myc- or Flag-tagged RYBP expressed in HEK293T cells (protein, UniProt Q8N488 1-228) MTMGDKKSPTRPKRQAKPAADEGFWDCSVCTFRNSAEAFKCSICDVRKGTSTRKPRINSQLVAQQVAQQYATPPPPKKEKKEKVEKQDKEKPEKDKEISPSVTKKNTNKKTKPKSDILKDPPSEANSIQSANATTKTSETNHTSRPRLKNVDRSTAQQLAVTVGNVTVIITDFKEKTRSSSTSSSTVTSSAGSEQQNQSSSGSESTDKGSSRSSTPKGDMSAVNDESF	binds
Myc- or Flag-tagged ING2 expressed in HEK293T cells (protein, UniProt Q9H160 1-280) MLGQQQQQLYSSAALLTGERSRLLTCYVQDYLECVESLPHDMQRNVSVLRELDNKYQETLKEIDDVYEKYKKEDDLNQKKRLQQLLQRALINSQELGDEKIQIVTQMLELVENRARQMELHSQCFQDPAESERASDKAKMDSSQPERSSRRPRRQRTSESRDLCHMANGIEDCDDQPPKEKKSKSAKKKKRSKAKQEREASPVEFAIDPNEPTYCLCNQVSYGEMIGCDNEQCPIEWFHFSCVSLTYKPKGKWYCPKCRGDNEKTMDKSTEKTKKDRRSR	binds

target: V5-His6-tagged Zika virus NS5 protein (Zika virus (PRVABC59 strain)); assay: PLATO-BC (ribosome display of the barcoded human ORFeome, affinity enrichment, barcode sequencing)

Binder	binding
coiled-coil domain containing 124 (CCDC124), ribosome-displayed ORF (protein, UniProt Q96CT7 1-223) MPKKFQGENTKSAAARARRAEAKAAADAKKQKELEDAYWKDDDKHVMRKEQRKEEKEKRRLDQLERKKETQRLLEEEDSKLKGGKAPRVATSSKVTRAQIEDTLRRDHQLREAPDTAEKAKSHLEVPLEENVNRRVLEEGSVEARTIEDAIAVLSVAEEAADRHPERRMRAAFTAFEEAQLPRLKQENPNMRLSQLKQLLKKEWLRSPDNPMNQRAVPFNAPK	binds
RING1 and YY1 binding protein (RYBP), ribosome-displayed ORF (protein, UniProt Q8N488 1-228) MTMGDKKSPTRPKRQAKPAADEGFWDCSVCTFRNSAEAFKCSICDVRKGTSTRKPRINSQLVAQQVAQQYATPPPPKKEKKEKVEKQDKEKPEKDKEISPSVTKKNTNKKTKPKSDILKDPPSEANSIQSANATTKTSETNHTSRPRLKNVDRSTAQQLAVTVGNVTVIITDFKEKTRSSSTSSSTVTSSAGSEQQNQSSSGSESTDKGSSRSSTPKGDMSAVNDESF	binds
C11orf46, ribosome-displayed ORF (protein, UniProt Q8N8R7 1-260) MMDPCSVGVQLRTTNECHKTYYTRHTGFKTLQELSSNDMLLLQLRTGMTLSGNNTICFHHVKIYIDRFEDLQKSCCDPFNIHKKLAKKNLHVIDLDDATFLSAKFGRQLVPGWKLCPKCTQIINGSVDVDTEDRQKRKPESDGRTAKALRSLQFTNPGRQTEFAPETGKREKRRLTKNATAGSDRQVIPAKSKVYDSQGLLIFSGMDLCDCLDEDCLGCFYACPACGSTKCGAECRCDRKWLYEQIEIEGGEIIHNKHAG	binds
inhibitor growth of protein 2 (ING2), ribosome-displayed ORF (protein, UniProt Q9H160 1-280) MLGQQQQQLYSSAALLTGERSRLLTCYVQDYLECVESLPHDMQRNVSVLRELDNKYQETLKEIDDVYEKYKKEDDLNQKKRLQQLLQRALINSQELGDEKIQIVTQMLELVENRARQMELHSQCFQDPAESERASDKAKMDSSQPERSSRRPRRQRTSESRDLCHMANGIEDCDDQPPKEKKSKSAKKKKRSKAKQEREASPVEFAIDPNEPTYCLCNQVSYGEMIGCDNEQCPIEWFHFSCVSLTYKPKGKWYCPKCRGDNEKTMDKSTEKTKKDRRSR	binds
